No constants are given. Whether binding was seen depends on the method and setting. Binding seen in cells or lysates may run through a third protein. A yes stands for co-enrichment or nearness to the bait. Other partners may have been found. A no says only that the protein was not detected with the bait. Tags and fused reporters may be left off the sequences shown.
B1: RAD51B (protein, UniProt O15315 1-384)
chain: MGSKKLKRVGLSQELCDRLSRHQILTCQDFLCLSPLELMKVTGLSYRGVHELLCMVSRACAPKMQTAYGIKAQRSADFSPAFLSTTLSALDEALHGGVACGSLTEITGPPGCGKTQFCIMMSILATLPTNMGGLEGAVVYIDTESAFSAERLVEIAESRFPRYFNTEEKLLLTSSKVHLYRELTCDEVLQRIESLEEEIISKGIKLVILDSVASVVRKEFDAQLQGNLKERNKFLAREASSLKYLAEEFSIPVILTNQITTHLSGALASQADLVSPADDLSLSEGTSGSSCVIAALGNTWSHSVNTRLILQYLDSERRQILIAKSPLAPFTSFVYTIKEEGLVLQETTFCSVTQAELNWAPEILPPQPPEQLGLQMCHHTQLIF
B2: RAD51C (protein, UniProt O43502 1-376)
chain: MRGKTFRFEMQRDLVSFPLSPAVRVKLVSAGFQTAEELLEVKPSELSKEVGISKAEALETLQIIRRECLTNKPRYAGTSESHKKCTALELLEQEHTQGFIITFCSALDDILGGGVPLMKTTEICGAPGVGKTQLCMQLAVDVQIPECFGGVAGEAVFIDTEGSFMVDRVVDLATACIQHLQLIAEKHKGEEHRKALEDFTLDNILSHIYYFRCRDYTELLAQVYLLPDFLSEHSKVRLVIVDGIAFPFRHDLDDLSLRTRLLNGLAQQMISLANNHRLAVILTNQMTTKIDRNQALLVPALGESWGHAATIRLIFHWDRKQRLATLYKSPSQKECTVLFQIKPQGFRDTVVTSACSLQTEGSLSTRKRSRDPEEEL
B3: XRCC2 (endogenous, HeLa S3) (protein, UniProt O43543 1-280)
chain: MCSAFHRAESGTELLARLEGRSSLKEIEPNLFADEDSPVHGDILEFHGPEGTGKTEMLYHLTARCILPKSEGGLEVEVLFIDTDYHFDMLRLVTILEHRLSQSSEEIIKYCLGRFFLVYCSSSTHLLLTLYSLESMFCSHPSLCLLILDSLSAFYWIDRVNGGESVNLQESTLRKCSQCLEKLVNDYRLVLFATTQTIMQKASSSSEEPSHASRRLCDVDIDYRPYLCKAWQQLVKHRMFFSKQDDSQSSNQFSLVSRCLKSNSLKKHFFIIGESGVEFC
B4: ATRIP (protein, UniProt Q8WXE1 1-791)
chain: MAGTSAPGSKRRSEPPAPRPGPPPGTGHPPSKRARGFSAAAAPDPDDPFGAHGDFTADDLEELDTLASQALSQCPAAARDVSSDHKVHRLLDGMSKNPSGKNRETVPIKDNFELEVLQAQYKELKEKMKVMEEEVLIKNGEIKILRDSLHQTESVLEEQRRSHFLLEQEKTQALSDKEKEFSKKLQSLQSELQFKDAEMNELRTKLQTSERANKLAAPSVSHVSPRKNPSVVIKPEACSPQFGKTSFPTKESFSANMSLPHPCQTESGYKPLVGREDSKPHSLRGDSIKQEEAQKSFVDSWRQRSNTQGSILINLLLKQPLIPGSSLSLCHLLSSSSESPAGTPLQPPGFGSTLAGMSGLRTTGSYDGSFSLSALREAQNLAFTGLNLVARNECSRDGDPAEGGRRAFPLCQLPGAVHFLPLVQFFIGLHCQALQDLAAAKRSGAPGDSPTHSSCVSSGVETNPEDSVCILEGFSVTALSILQHLVCHSGAVVSLLLSGVGADSAAGEGNRSLVHRLSDGDMTSALRGVADDQGQHPLLKMLLHLLAFSSAATGHLQASVLTQCLKVLVKLAENTSCDFLPRFQCVFQVLPKCLSPETPLPSVLLAVELLSLLADHDQLAPQLCSHSEGCLLLLLYMYITSRPDRVALETQWLQLEQEVVWLLAKLGVQSPLPPVTGSNCQCNVEVVRALTVMLHRQWLTVRRAGGPPRTDQQRRTVRCLRDTVLLLHGLSQKDKLFMMHCVEVLHQFDQVMPGVSMLIRGLPDVTDCEEAALDDLCAAETDVEDPEVECG
B5: XRCC3 (protein, UniProt O43542 1-346)
chain: MDLDLLDLNPRIIAAIKKAKLKSVKEVLHFSGPDLKRLTNLSSPEVWHLLRTASLHLRGSSILTALQLHQQKERFPTQHQRLSLGCPVLDALLRGGLPLDGITELAGRSSAGKTQLALQLCLAVQFPRQHGGLEAGAVYICTEDAFPHKRLQQLMAQQPRLRTDVPGELLQKLRFGSQIFIEHVADVDTLLECVNKKVPVLLSRGMARLVVIDSVAAPFRCEFDSQASAPRARHLQSLGATLRELSSAFQSPVLCINQVTEAMEEQGAAHGPLGFWDERVSPALGITWANQLLVRLLADRLREEEAALGCPARTLRVLSAPHLPPSSCSYTISAEGVRGTPGTQSH
B6: DNA polymerase POLN (endogenous, HeLa S3) (enzyme, UniProt Q7Z5Q5 1-900)
chain: MENYEALVGFDLCNTPLSSVAQKIMSAMHSGDLVDSKTWGKSTETMEVINKSSVKYSVQLEDRKTQSPEKKDLKSLRSQTSRGSAKLSPQSFSVRLTDQLSADQKQKSISSLTLSSCLIPQYNQEASVLQKKGHKRKHFLMENINNENKGSINLKRKHITYNNLSEKTSKQMALEEDTDDAEGYLNSGNSGALKKHFCDIRHLDDWAKSQLIEMLKQAAALVITVMYTDGSTQLGADQTPVSSVRGIVVLVKRQAEGGHGCPDAPACGPVLEGFVSDDPCIYIQIEHSAIWDQEQEAHQQFARNVLFQTMKCKCPVICFNAKDFVRIVLQFFGNDGSWKHVADFIGLDPRIAAWLIDPSDATPSFEDLVEKYCEKSITVKVNSTYGNSSRNIVNQNVRENLKTLYRLTMDLCSKLKDYGLWQLFRTLELPLIPILAVMESHAIQVNKEEMEKTSALLGARLKELEQEAHFVAGERFLITSNNQLREILFGKLKLHLLSQRNSLPRTGLQKYPSTSEAVLNALRDLHPLPKIILEYRQVHKIKSTFVDGLLACMKKGSISSTWNQTGTVTGRLSAKHPNIQGISKHPIQITTPKNFKGKEDKILTISPRAMFVSSKGHTFLAADFSQIELRILTHLSGDPELLKLFQESERDDVFSTLTSQWKDVPVEQVTHADREQTKKVVYAVVYGAGKERLAACLGVPIQEAAQFLESFLQKYKKIKDFARAAIAQCHQTGCVVSIMGRRRPLPRIHAHDQQLRAQAERQAVNFVVQGSAADLCKLAMIHVFTAVAASHTLTARLVAQIHDELLFEVEDPQIPECAALVRRTMESLEQVQALELQLQVPLKVSLSAGRSWGHLVPLQEAWGPPPGPCRTESPSNSLAAPGSPASTQPPPLHFSPSFCL
B7: HELQ (endogenous, HeLa S3) (enzyme, UniProt Q8TDG4 1-1101)
chain: MDECGSRIRRRVSLPKRNRPSLGCIFGAPTAAELVPGDEGKEEEEMVAENRRRKTAGVLPVEVQPLLLSDSPECLVLGGGDTNPDLLRHMPTDRGVGDQPNDSEVDMFGDYDSFTENSFIAQVDDLEQKYMQLPEHKKHATDFATENLCSESIKNKLSITTIGNLTELQTDKHTENQSGYEGVTIEPGADLLYDVPSSQAIYFENLQNSSNDLGDHSMKERDWKSSSHNTVNEELPHNCIEQPQQNDESSSKVRTSSDMNRRKSIKDHLKNAMTGNAKAQTPIFSRSKQLKDTLLSEEINVAKKTVESSSNDLGPFYSLPSKVRDLYAQFKGIEKLYEWQHTCLTLNSVQERKNLIYSLPTSGGKTLVAEILMLQELLCCRKDVLMILPYVAIVQEKISGLSSFGIELGFFVEEYAGSKGRFPPTKRREKKSLYIATIEKGHSLVNSLIETGRIDSLGLVVVDELHMIGEGSRGATLEMTLAKILYTSKTTQIIGMSATLNNVEDLQKFLQAEYYTSQFRPVELKEYLKINDTIYEVDSKAENGMTFSRLLNYKYSDTLKKMDPDHLVALVTEVIPNYSCLVFCPSKKNCENVAEMICKFLSKEYLKHKEKEKCEVIKNLKNIGNGNLCPVLKRTIPFGVAYHHSGLTSDERKLLEEAYSTGVLCLFTCTSTLAAGVNLPARRVILRAPYVAKEFLKRNQYKQMIGRAGRAGIDTIGESILILQEKDKQQVLELITKPLENCYSHLVQEFTKGIQTLFLSLIGLKIATNLDDIYHFMNGTFFGVQQKVLLKEKSLWEITVESLRYLTEKGLLQKDTIYKSEEEVQYNFHITKLGRASFKGTIDLAYCDILYRDLKKGLEGLVLESLLHLIYLTTPYDLVSQCNPDWMIYFRQFSQLSPAEQNVAAILGVSESFIGKKASGQAIGKKVDKNVVNRLYLSFVLYTLLKETNIWTVSEKFNMPRGYIQNLLTGTASFSSCVLHFCEELEEFWVYRALLVELTKKLTYCVKAELIPLMEVTGVLEGRAKQLYSAGYKSLMHLANANPEVLVRTIDHLSRRQAKQIVSSAKMLLHEKAEALQEEVEELLRLPSDFPGAVASSTDKA

Chains of the proteins cited; added tags and fusions are not shown.
UniProt Q9BXW9: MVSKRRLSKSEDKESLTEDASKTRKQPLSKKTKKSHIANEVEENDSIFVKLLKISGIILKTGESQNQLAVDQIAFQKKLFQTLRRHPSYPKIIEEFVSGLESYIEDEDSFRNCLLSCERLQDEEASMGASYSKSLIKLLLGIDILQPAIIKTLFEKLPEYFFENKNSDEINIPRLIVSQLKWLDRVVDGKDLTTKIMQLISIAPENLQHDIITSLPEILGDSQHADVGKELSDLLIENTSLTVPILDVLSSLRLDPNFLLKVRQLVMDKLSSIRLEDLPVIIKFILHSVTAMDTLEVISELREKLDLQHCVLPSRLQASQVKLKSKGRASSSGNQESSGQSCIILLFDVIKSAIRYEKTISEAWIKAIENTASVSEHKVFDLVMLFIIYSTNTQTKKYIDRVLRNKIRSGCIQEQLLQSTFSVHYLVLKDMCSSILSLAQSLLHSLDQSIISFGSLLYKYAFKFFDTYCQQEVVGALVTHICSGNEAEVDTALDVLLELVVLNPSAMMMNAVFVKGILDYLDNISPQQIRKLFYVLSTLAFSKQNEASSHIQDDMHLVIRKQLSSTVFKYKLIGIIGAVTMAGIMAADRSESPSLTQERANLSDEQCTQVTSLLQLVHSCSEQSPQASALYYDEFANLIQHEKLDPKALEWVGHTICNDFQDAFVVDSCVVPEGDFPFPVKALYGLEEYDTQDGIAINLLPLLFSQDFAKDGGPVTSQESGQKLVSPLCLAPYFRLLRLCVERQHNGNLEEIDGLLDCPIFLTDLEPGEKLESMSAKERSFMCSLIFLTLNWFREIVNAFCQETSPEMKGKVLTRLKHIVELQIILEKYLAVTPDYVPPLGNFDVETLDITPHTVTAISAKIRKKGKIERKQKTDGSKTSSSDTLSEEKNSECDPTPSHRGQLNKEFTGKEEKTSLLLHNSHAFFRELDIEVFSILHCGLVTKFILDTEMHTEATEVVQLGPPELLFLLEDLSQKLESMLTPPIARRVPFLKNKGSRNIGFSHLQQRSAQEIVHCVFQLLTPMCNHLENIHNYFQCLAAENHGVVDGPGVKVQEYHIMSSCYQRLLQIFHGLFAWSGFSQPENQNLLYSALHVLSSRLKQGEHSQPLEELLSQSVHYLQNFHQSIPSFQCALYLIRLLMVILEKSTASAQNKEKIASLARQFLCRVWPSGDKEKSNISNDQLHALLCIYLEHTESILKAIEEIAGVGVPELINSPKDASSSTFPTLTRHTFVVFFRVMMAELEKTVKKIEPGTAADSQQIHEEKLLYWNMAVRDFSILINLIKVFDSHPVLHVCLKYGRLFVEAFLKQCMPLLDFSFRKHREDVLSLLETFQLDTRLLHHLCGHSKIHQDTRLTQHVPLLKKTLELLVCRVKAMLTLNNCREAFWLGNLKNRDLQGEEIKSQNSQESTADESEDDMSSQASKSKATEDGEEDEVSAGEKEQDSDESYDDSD

biological target: T1, FLAG-HA epitope-tagged HELQ (human) (UniProt Q8TDG4); test: affinity purification with mass spectrometry; FLAG-HA-tagged bait stably expressed in HeLa S3; sequential anti-FLAG (M2 agarose, FLAG peptide elution) and anti-HA (12CA5) immunoprecipitation from nuclear extract; washes in 100 mM KCl, 20 mM Tris-HCl pH 8.0, 5 mM MgCl2, 10% glycerol, 0.1% Tween-20; 4-20% gradient gel, gel sections by LC-MS
T1 sequence: B7 chain

**Q.** Which binding does the source give for FANCD2 (from UniProt Q9BXW9 1-1451) here?
**A.** Its binding is “no binding”.

**Q.** Which binding does the source give for B1 here?
**A.** Its binding is “binds”.

**Q.** For B2, which binding is on record?
**A.** Its binding is “binds”.

**Q.** For B3, which binding is on record?
**A.** Its binding is “binds”.

**Q.** For B4, which binding is on record?
**A.** The binding was “binds”.

**Q.** B5 was tested. Which binding did it give?
**A.** Its binding is “no binding”.

**Q.** Which binding does the source give for B6 here?
**A.** The binding was “no binding”.

biological target: T2, FLAG-HA epitope-tagged XRCC2 (UniProt O43543); test: as above
T2 sequence: B3 chain

**Q.** For B7, which binding is on record?
**A.** The binding was “binds”.

**Q.** Which binding does the source give for B6 here?
**A.** The binding was “no binding”.

From paper PMC3778836
